Here are results for 6 molecules from PMC9923014, “BIN2 phosphorylates the Thr280 of CO to restrict its function in promoting Arabidopsis flowering” (Frontiers in Plant Science, 2023).

Chains of the proteins cited; added tags and fusions are not shown. Lines headed by an entry give the natural chain unless they say otherwise; changes in a name come on top.
UniProt Q9SK03: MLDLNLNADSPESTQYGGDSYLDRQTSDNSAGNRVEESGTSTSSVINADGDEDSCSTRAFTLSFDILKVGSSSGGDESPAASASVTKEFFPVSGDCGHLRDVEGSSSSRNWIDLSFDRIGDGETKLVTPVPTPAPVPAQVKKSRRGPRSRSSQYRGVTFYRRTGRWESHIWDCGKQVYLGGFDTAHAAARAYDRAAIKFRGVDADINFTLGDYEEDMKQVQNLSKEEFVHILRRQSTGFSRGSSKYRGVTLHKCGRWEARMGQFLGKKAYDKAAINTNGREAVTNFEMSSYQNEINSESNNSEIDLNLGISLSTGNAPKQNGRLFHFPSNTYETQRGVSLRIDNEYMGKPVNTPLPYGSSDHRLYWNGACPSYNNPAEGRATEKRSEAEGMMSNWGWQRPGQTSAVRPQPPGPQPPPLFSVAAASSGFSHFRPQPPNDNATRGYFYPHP
UniProt Q39057: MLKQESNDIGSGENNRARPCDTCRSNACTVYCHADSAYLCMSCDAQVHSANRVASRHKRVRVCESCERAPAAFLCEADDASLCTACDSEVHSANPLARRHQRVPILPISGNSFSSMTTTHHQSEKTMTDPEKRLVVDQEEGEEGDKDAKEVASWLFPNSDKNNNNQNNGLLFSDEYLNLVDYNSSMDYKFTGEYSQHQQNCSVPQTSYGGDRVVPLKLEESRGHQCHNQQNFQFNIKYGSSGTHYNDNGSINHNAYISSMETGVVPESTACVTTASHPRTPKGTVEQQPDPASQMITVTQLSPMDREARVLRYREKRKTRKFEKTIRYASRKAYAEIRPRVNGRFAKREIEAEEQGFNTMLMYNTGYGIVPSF
UniProt Q39026: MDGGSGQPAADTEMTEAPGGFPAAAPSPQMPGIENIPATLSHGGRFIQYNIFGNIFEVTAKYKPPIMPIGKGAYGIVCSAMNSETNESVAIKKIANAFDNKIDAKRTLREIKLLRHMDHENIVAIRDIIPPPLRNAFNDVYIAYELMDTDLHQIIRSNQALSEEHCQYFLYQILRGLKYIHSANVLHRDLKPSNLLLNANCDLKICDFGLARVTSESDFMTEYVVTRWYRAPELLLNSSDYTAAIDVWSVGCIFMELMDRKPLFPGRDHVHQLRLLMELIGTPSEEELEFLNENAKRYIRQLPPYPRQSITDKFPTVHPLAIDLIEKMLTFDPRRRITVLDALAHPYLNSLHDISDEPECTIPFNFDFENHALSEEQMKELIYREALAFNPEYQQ

Like-named read-outs stand apart in the source and are kept apart here. No constants are given. Whether binding was seen depends on the method and setting. For some assays here: In cells and extracts the contact can be indirect. Some binding calls cover weakened binding; strength is not graded here. For some assays here: Sequences can lack the tags named with a protein.

The target of assay [1] is T1, BD-BIN2 (Arabidopsis thaliana) (UniProt Q39011).
T1 sequence: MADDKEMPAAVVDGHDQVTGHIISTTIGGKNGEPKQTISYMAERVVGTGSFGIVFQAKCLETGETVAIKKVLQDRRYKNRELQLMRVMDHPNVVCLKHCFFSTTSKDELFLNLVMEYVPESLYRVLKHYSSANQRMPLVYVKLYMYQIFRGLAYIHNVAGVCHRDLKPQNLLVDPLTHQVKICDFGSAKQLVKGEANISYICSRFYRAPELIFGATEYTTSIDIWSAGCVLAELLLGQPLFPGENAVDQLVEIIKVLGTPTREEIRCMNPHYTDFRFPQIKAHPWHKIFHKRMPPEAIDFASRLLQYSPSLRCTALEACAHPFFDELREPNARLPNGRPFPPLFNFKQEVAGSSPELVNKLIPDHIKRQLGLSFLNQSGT
Description: two-hybrid; pGADT7 and pGBKT7 fusions in AH109 yeast; growth on SD-L/W/H, 30°C, 3 to 4 days.

Assay [2] has as its target T2, NF-YC4 (NUCLEAR FACTOR Y subunit), yeast two-hybrid fusion (Arabidopsis thaliana) (UniProt Q9FMV5).
T2 sequence: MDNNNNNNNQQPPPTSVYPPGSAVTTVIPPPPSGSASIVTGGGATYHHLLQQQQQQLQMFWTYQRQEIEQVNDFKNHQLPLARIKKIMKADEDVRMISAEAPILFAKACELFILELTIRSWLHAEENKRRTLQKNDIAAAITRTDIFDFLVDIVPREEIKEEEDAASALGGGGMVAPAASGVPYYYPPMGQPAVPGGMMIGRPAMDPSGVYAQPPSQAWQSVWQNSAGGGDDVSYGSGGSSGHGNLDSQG
The assay is described as above.

Assay [3] has as its target TARGET OF EAT1 (TOE1), yeast two-hybrid fusion (Arabidopsis thaliana) (UniProt Q9SK03). The description is as above.
Assay [4] deals with nLUC-CO (CONSTANS fused with the amino-terminal part of luciferase) (Arabidopsis thaliana) (UniProt Q39057). Description: split reporter; luciferase complementation imaging (LCI); nLUC and cLUC fusions co-infiltrated into N. benthamiana leaves by Agrobacterium GV3101; 12 h dark and 36 h light; LUC activity imaged.
Assay [5] shares this target. Described as above. The source holds these as a separate data set.

For the molecule AD-CO (from UniProt Q39057 1-373), in assay [1], the binding entry was “binds”.

For the molecule “CO (yeast two-hybrid fusion tested with TOE1 and NF-YC4) (from UniProt Q39057 1-373)”, the binding entry in assay [2] and in assay [3] was “binds” throughout.

As to “CO^T280A (yeast two-hybrid fusion tested with TOE1 and NF-YC4) (from UniProt Q39057 1-373)”, the binding entry in assay [2] and in assay [3] was “binds” each time.

Regarding “cLUC-MPK6 (from UniProt Q39026 1-395) (enzyme)”, the binding result in assay [4] was “no binding”.

As to “nLUC-CO (CONSTANS fused with the amino-terminal part of luciferase) (from UniProt Q39057 1-373)”, in assay [4], the binding entry is “binds”.

B1: cLUC-SK12 (enzyme, UniProt P43289 1-409)
chain: MASVGIEPSAAVRESTGNVTDADRLPEEMKDMKIQDDKEMEATIVNGNVTETGHIIVTTIGGRNGQPKQTISYMAERVVGHGSFGVVFQAKCLETGETVAIKKVLQDRRYKNRELQTMRLLDHPNVVSLKHCFFSTTEKDELYLNLVLEYVPETVHRVIKHYNKLNQRMPLVYVKLYTYQIFRSLSYIHRCIGVCHRDIKPQNLLVNPHTHQVKLCDFGSAKVLVKGEPNISYICSRYYRAPELIFGATEYTTAIDVWSAGCVLAELLLGQPLFPGESGVDQLVEIIKVLGTPTREEIKCMNPNYTEFKFPQIKAHPWHKIFHKRMPPEAVDLVSRLLQYSPNLRCAALDSLVHPFFDELRDPNARLPNGRFLPPLFNFKPHELKGVPVEMVAKLVPEHARKQCPWLSL
With B1, in assay [5], the binding result is reported as “binds”.
